No constants are given. Whether binding was seen depends on the method and setting. Binding seen in cells or lysates may run through a third protein. Some entries that bind do so weakly or less than the wild type.
Molecular target: hTPC2-myc (Myc-tagged TPC2) (human) (UniProt Q8NHX9)
Test: co-IP; HEK293 co-transfected; lysis in PBS, 1% Triton X-100 with protease and phosphatase inhibitors; Myc-tagged TPC2 precipitated with anti-Myc magnetic agarose beads, overnight at 4 °C, three washes; Western blot

Protein sequences, listed by entry. Tags and fused reporters are not part of them.
UniProt Q8NHX9: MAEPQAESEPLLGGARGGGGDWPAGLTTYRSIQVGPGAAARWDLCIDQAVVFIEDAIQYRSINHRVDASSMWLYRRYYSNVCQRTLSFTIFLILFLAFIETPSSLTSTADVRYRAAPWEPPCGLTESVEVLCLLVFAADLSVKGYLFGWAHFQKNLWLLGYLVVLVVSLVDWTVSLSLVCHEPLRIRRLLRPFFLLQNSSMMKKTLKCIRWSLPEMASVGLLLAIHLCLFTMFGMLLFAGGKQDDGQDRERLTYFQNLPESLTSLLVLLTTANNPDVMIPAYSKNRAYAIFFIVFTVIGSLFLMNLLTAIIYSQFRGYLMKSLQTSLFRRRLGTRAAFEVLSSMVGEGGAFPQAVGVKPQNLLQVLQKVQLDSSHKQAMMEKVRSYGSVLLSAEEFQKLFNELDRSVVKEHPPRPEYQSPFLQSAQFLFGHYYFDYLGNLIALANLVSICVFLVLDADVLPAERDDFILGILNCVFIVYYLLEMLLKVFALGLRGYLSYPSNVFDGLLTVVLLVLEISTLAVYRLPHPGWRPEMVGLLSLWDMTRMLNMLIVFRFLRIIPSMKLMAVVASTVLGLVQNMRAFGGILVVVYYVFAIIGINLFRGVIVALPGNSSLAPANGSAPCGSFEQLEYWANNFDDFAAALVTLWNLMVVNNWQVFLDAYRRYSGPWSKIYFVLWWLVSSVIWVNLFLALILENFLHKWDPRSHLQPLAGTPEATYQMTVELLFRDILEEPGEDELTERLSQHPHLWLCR
UniProt P51149: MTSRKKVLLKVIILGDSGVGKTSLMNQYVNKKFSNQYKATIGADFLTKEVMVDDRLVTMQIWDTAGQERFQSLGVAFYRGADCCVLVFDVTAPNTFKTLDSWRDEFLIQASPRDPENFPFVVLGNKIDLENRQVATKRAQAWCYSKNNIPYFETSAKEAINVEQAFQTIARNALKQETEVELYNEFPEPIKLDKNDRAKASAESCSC

- binding: binds
Substance: Rab7a as co-expressed for the co-immunoprecipitation (from UniProt P51149 1-207)

From paper PMC11576762
